{"source": "paper PMC9076386", "about": "(RSC Advances, 2019)", "test_system": "MCF-7 cells", "test": "MTT cytotoxicity assay, MCF-7", "type": "cell-based", "conditions": "Homo sapiens, MCF7, read-out: IC50 MCF-7"}
{"smiles": "CC(=O)O[C@H]1C(=O)[C@@]2(C)[C@H]([C@H](OC(=O)c3ccccc3)[C@]3(O)C[C@H](OC(=O)[C@H](O)[C@@H](NC(=O)c4ccccc4)c4ccccc4)C(C)=C1C3(C)C)[C@]1(OC(C)=O)CO[C@@H]1C[C@@H]2O", "note": "[Paclitaxel]", "values": [{"measurement": "IC50", "value": 1.7, "unit": "nM"}]}
